Some of the results follow.
Tests used:
Assay in all cases: log2 fold change, soluble protein after heating vs DMSO (PISA); higher = thermal stabilisation; K562 cells, 10 uM, 30 min; active = over 0.2 and 3.5 SD of the protein, either way, in both replicates (recomputed)
[1] = compound: COC1=CC=C(C=C1)CN2C=CC3=C2C=C(C=C3)C(=O)NO
In short: (§1)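 Soluble protein was quantified by TMTpro 16plex LC-MS/MS after channel sums were equalised. It was obtained as the supernatant after 21,000xg for 90 min from pooled aliquots of K562 cells (2×10^6 cells/mL, 10 μM compound, 30 min) heated for 3 min across 48°C-58°C and extracted in PBS with 0.5% NP-40 at 4°C. Thermal stability values are relative to control samples and come from duplicates. They are given as log2 fold changes.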

The chains behind the UniProt entries cited, without tags or fusion partners. Where a name states a change or a piece, a line headed by the entry shows the natural chain unless it says otherwise.
UniProt Q9NR19, whole entry, looked up: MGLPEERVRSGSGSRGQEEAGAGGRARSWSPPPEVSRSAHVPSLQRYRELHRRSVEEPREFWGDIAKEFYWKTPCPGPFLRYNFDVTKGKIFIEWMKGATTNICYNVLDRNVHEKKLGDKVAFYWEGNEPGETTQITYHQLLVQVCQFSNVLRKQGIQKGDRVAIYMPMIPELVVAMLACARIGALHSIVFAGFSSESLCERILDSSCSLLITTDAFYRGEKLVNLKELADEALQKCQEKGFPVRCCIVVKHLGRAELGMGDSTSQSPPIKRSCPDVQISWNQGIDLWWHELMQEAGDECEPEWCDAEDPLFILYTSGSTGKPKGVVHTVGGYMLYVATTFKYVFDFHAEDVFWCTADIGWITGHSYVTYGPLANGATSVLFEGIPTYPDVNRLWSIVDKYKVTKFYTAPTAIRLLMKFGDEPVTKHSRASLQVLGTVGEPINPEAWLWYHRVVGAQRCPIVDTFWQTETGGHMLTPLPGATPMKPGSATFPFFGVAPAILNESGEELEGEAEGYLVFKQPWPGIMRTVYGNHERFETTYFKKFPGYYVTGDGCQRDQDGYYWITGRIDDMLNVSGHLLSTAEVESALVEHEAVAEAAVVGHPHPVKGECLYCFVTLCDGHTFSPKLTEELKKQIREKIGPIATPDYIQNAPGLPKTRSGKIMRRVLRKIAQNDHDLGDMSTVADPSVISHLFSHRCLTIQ
UniProt Q15067: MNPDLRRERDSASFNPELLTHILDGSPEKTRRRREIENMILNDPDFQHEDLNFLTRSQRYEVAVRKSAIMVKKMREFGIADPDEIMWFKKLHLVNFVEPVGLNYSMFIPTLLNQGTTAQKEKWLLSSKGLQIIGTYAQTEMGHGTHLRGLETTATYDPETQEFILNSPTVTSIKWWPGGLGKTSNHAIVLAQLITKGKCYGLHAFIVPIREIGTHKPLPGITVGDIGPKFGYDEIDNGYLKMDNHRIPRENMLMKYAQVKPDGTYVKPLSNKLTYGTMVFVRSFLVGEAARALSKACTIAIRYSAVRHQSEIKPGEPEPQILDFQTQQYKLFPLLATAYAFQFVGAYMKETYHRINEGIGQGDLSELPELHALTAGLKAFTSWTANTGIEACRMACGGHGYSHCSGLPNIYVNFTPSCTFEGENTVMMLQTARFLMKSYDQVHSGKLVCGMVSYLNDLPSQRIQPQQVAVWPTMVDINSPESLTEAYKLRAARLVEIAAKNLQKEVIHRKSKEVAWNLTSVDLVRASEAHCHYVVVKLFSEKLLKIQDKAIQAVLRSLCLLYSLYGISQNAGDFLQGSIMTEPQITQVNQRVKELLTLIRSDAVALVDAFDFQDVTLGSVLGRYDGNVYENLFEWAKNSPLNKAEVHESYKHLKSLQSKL
UniProt Q7Z6V5: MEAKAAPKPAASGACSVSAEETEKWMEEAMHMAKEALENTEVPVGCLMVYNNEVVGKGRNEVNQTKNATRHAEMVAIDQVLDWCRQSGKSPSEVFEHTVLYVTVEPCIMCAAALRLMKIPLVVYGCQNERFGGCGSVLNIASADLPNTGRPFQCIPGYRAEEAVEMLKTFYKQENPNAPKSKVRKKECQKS
UniProt Q9H845: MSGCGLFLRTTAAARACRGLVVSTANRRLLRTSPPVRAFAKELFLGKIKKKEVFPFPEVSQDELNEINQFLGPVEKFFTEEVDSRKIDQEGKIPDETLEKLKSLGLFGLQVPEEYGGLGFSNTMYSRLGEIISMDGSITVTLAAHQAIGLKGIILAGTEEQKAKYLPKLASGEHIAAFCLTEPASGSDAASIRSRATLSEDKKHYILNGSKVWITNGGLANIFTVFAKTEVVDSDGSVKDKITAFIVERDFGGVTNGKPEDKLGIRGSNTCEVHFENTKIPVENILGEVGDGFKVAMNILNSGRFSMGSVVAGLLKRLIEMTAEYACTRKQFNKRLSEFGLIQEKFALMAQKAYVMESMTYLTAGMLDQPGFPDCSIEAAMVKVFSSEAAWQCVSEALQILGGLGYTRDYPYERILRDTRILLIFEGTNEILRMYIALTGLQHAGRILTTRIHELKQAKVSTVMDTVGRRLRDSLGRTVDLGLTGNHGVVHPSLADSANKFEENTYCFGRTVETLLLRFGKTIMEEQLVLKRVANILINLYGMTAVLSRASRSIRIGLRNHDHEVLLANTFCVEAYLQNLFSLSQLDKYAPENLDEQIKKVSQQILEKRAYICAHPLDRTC
UniProt O14734: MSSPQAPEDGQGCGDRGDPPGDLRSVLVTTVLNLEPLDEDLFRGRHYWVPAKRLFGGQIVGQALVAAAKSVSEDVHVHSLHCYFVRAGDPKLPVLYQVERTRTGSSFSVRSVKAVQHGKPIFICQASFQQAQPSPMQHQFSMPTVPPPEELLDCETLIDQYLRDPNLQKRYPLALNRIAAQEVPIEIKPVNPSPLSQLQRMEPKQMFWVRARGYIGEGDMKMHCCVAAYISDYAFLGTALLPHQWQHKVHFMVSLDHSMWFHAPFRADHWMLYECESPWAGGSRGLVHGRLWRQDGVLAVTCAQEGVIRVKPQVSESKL
UniProt O00763, whole entry, looked up: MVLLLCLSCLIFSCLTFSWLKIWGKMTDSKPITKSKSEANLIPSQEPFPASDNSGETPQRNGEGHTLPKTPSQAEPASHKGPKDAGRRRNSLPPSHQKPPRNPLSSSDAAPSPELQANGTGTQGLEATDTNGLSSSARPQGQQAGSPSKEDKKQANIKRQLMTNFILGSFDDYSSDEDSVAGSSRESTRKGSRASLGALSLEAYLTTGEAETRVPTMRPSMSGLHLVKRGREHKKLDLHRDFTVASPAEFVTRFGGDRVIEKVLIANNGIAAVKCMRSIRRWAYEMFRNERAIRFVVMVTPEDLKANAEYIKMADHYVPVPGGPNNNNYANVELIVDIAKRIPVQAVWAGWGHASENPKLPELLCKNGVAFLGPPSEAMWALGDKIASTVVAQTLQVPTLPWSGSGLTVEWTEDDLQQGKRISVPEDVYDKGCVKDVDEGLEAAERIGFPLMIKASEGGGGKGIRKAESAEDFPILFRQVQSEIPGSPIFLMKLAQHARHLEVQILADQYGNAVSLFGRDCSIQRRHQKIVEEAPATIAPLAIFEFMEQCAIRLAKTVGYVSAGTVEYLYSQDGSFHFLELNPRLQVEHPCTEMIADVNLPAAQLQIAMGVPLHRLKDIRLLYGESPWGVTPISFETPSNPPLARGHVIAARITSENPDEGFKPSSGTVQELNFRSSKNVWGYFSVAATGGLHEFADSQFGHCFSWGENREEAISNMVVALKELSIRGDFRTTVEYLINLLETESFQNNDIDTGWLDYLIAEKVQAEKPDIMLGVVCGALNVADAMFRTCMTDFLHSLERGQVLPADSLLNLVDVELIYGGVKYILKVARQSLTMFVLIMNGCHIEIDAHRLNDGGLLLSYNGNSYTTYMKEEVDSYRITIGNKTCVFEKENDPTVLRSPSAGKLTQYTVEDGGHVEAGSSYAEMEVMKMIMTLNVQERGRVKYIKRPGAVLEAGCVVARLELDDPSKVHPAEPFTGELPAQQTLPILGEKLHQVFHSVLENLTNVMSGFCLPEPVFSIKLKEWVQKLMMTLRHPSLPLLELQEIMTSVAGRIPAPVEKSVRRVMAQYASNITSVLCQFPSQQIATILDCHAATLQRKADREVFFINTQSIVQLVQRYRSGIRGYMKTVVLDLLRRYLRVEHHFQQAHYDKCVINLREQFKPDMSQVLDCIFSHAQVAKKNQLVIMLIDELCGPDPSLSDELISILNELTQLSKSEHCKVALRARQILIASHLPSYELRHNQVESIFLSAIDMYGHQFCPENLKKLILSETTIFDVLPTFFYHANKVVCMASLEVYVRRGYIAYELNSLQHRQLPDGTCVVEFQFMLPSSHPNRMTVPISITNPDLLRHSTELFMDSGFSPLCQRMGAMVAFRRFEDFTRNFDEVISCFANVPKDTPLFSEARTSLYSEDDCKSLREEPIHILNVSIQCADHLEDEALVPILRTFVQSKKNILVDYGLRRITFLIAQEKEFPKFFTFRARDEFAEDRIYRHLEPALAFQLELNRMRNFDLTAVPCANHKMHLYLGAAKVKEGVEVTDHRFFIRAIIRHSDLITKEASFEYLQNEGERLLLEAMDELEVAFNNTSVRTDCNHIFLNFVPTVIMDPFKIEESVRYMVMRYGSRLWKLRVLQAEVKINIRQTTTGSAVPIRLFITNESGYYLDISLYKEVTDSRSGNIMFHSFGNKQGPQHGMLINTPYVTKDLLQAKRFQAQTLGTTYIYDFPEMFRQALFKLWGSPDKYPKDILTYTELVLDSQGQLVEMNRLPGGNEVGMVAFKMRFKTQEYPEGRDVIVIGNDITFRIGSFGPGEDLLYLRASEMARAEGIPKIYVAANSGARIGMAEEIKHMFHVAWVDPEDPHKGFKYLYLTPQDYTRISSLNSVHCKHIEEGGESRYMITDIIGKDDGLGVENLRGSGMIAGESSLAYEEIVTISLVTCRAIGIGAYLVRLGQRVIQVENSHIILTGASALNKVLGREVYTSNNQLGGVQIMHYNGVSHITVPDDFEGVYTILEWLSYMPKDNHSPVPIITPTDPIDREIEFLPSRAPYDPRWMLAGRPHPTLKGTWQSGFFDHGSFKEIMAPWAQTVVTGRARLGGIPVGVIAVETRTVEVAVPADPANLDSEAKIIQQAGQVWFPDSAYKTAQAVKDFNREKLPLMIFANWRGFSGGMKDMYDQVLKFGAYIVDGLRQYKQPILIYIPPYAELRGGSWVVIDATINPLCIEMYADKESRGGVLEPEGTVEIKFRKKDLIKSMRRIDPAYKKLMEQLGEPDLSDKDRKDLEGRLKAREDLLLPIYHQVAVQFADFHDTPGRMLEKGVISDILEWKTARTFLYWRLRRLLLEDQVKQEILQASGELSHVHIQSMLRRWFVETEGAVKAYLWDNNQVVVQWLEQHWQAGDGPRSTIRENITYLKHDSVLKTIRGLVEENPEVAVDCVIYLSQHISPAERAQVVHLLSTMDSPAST
UniProt Q99798: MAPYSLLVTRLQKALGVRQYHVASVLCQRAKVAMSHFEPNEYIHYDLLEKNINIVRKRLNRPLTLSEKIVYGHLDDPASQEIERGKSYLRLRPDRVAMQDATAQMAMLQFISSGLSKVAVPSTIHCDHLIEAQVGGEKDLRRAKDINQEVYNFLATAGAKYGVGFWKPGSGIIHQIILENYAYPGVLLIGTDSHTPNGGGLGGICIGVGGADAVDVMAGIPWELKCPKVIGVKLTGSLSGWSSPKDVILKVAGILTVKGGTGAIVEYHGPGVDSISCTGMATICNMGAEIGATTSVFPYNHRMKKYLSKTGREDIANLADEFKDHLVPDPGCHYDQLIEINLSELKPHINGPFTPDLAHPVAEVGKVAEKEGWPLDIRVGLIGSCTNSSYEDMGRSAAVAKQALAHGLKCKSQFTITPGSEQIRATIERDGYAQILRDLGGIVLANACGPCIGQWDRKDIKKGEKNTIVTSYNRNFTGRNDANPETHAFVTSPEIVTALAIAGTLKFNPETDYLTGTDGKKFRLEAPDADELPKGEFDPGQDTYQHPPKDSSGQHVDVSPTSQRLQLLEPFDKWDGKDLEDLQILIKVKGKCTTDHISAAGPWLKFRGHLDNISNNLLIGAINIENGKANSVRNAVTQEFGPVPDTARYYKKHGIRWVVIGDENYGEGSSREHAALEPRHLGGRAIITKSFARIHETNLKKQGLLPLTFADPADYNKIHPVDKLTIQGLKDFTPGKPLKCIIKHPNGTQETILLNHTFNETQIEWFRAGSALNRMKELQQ
UniProt P33121: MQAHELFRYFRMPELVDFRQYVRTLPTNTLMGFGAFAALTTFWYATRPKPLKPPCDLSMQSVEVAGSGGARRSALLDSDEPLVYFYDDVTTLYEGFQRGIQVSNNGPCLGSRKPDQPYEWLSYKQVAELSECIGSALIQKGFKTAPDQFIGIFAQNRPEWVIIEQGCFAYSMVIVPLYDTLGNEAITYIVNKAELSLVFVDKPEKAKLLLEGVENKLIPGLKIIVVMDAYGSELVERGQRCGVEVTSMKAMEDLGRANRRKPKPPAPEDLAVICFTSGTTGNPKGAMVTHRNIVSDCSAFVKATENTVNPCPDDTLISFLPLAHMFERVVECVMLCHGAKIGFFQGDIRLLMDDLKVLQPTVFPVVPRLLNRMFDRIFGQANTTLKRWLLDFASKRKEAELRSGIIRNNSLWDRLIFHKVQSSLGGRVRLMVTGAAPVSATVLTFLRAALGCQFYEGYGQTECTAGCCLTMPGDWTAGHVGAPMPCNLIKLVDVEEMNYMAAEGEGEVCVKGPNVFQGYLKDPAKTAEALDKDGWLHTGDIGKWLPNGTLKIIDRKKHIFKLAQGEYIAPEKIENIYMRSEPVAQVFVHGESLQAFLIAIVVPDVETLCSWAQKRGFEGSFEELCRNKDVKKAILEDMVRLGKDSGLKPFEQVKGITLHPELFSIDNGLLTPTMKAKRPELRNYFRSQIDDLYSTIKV

filanesib = compound: CON(C)C(=O)N1N=C(c2cc(F)ccc2F)S[C@@]1(CCCN)c1ccccc1 [filanesib]
In short: as §1

zotarolimus = compound: CO[C@H]1C[C@@H]2CC[C@@H](C)[C@@](O)(O2)C(=O)C(=O)N2CCCC[C@H]2C(=O)O[C@H]([C@H](C)C[C@@H]2CC[C@H](n3cnnn3)[C@H](OC)C2)CC(=O)[C@H](C)/C=C(\C)[C@@H](O)[C@@H](OC)C(=O)[C@H](C)C[C@H](C)/C=C/C=C/C=C/1C [zotarolimus]
In short: as §1

idasanutlin = compound: COc1cc(C(=O)O)ccc1NC(=O)[C@@H]1N[C@@H](CC(C)(C)C)[C@](C#N)(c2ccc(Cl)cc2F)[C@H]1c1cccc(Cl)c1F [idasanutlin]
In short: as §1

alisertib = compound: COc1cc(Nc2ncc3c(n2)-c2ccc(Cl)cc2C(c2c(F)cccc2OC)=NC3)ccc1C(=O)O [alisertib]
In short: as §1

[2] = compound: COc1cc2nc(-c3cc(F)ccc3O)nc(N[C@@H]3CNC[C@H]3C(C)(C)O)c2cc1OC
In short: as §1

gefitinib = compound: COc1cc2ncnc(Nc3ccc(F)c(Cl)c3)c2cc1OCCCN1CCOCC1 [gefitinib]
In short: as §1

[3] = compound: COc1cccc2cc(-c3nc([C@H]4CC[C@H](C(=O)O)CC4)n4ncnc(N)c34)[nH]c12
In short: as §1

lapatinib = compound: CS(=O)(=O)CCNCc1ccc(-c2ccc3ncnc(Nc4ccc(OCc5cccc(F)c5)c(Cl)c4)c3c2)o1 [lapatinib]
In short: as §1

pictilisib = compound: CS(=O)(=O)N1CCN(Cc2cc3nc(-c4cccc5[nH]ncc45)nc(N4CCOCC4)c3s2)CC1 [pictilisib]
In short: as §1

Measured: log2 fold change

ACSM3 (UniProt Q53FZ2)
inactive: [1] 0.134 | filanesib -0.056 | zotarolimus 0.009 | idasanutlin -0.017 | alisertib -0.033 | [2] 0.101 | gefitinib -0.034 | [3] 0.028 | lapatinib -0.025 | pictilisib 0.198

ACSS2 isoform 2 (UniProt Q9NR19)
inactive: [1] -0.087 | filanesib -0.033 | zotarolimus 0.02 | idasanutlin -0.085 | alisertib -0.032 | [2] 0.049 | gefitinib 0.029 | [3] -0.01 | lapatinib 0 | pictilisib 0.075

ACOX1 isoform 3 (UniProt Q15067)
inactive: [1] -0.176

ADAT2 (UniProt Q7Z6V5)
inactive: [1] 0.106 | filanesib 0.018 | zotarolimus 0.023 | idasanutlin -0.012 | alisertib -0.027 | [2] -0.014 | gefitinib -0.02 | [3] 0.057 | lapatinib -0.036 | pictilisib -0.054

ACAD9 (UniProt Q9H845)
inactive: [1] -0.005 | filanesib -0.069 | zotarolimus -0.017 | idasanutlin 0.017 | alisertib -0.012 | [2] 0.03 | gefitinib 0.016 | [3] 0.083 | lapatinib -0.015 | pictilisib 0.082

ACOT8 (UniProt O14734)
inactive: [1] 0.001 | filanesib -0.022 | zotarolimus -0.06 | idasanutlin -0.036 | alisertib -0.017 | [2] 0.066 | gefitinib 0.022 | [3] 0.163 | lapatinib -0.044 | pictilisib 0.043

ACACA isoform 4 (UniProt Q13085)
inactive: [1] -0.03 | filanesib 0.144 | zotarolimus 0.084 | idasanutlin 0.063 | alisertib -0.093 | [2] 0.096 | gefitinib 0.061 | [3] -0.231 | lapatinib 0.07 | pictilisib -0.009

ACSS1 (UniProt Q9NUB1)
inactive: [1] -0.051 | filanesib -0.102 | zotarolimus -0.046 | idasanutlin -0.036 | alisertib 0.024 | [2] 0.002 | gefitinib 0.023 | [3] 0.162 | lapatinib 0.001 | pictilisib -0.082

ACBD6 (UniProt Q9BR61)
inactive: [1] 0.099 | filanesib 0.034 | zotarolimus 0.016 | idasanutlin 0.09 | alisertib -0.088 | [2] 0.133 | gefitinib -0.018 | [3] -0.271 | lapatinib -0.14 | pictilisib 0.012

ABRAXAS2 (UniProt Q15018)
inactive: [1] -0.038 | filanesib -0.03 | zotarolimus 0.019 | idasanutlin -0.019 | alisertib -0.013 | [2] -0.003 | gefitinib -0.003 | [3] 0.023 | lapatinib -0.004 | pictilisib -0.007

ABCB7 isoform 2 (UniProt O75027)
inactive: [1] -0.05 | filanesib -0.164 | zotarolimus 0.017 | idasanutlin -0.125 | alisertib -0.02 | [2] -0.031 | gefitinib -0.003 | [3] 0.052 | lapatinib 0.022 | pictilisib 0.002

ACACB (UniProt O00763)
inactive: [1] -0.019 | filanesib 0.258 | zotarolimus 0.132 | idasanutlin -0.042 | alisertib -0.168 | [2] 0.039 | gefitinib -0.02 | [3] -0.371 | lapatinib 0.068 | pictilisib 0.038

ACOT7 isoform 7 (UniProt O00154)
inactive: [1] 0.002 | filanesib -0.021 | zotarolimus 0.014 | idasanutlin -0.056 | alisertib -0.161 | [2] 0.002 | gefitinib -0.003 | [3] 0.013 | lapatinib 0.015 | pictilisib 0.009

ACO2 (UniProt Q99798)
inactive: [1] -0.101 | filanesib -0.081 | zotarolimus 0.015 | idasanutlin -0.086 | alisertib -0.016 | [2] 0.036 | gefitinib 0.008 | [3] 0.071 | lapatinib -0.018 | pictilisib 0.041

ACOX1 isoform 2 (UniProt Q15067)
inactive: [1] 0.014 | filanesib -0.103 | zotarolimus -0.023 | idasanutlin -0.033 | alisertib -0.013 | [2] 0.034 | gefitinib 0.049 | [3] 0.077 | lapatinib -0.013 | pictilisib 0.057

ACSL1 (UniProt P33121)
inactive: [1] -0.014 | filanesib -0.08 | zotarolimus 0.038 | idasanutlin -0.017 | alisertib 0.015 | [2] -0.261 | gefitinib 0.024 | [3] 0.024 | lapatinib 0.017 | pictilisib 0.041
